# From publication PMC11032447
# Chains of the proteins cited; added tags and fusions are not shown.
# UniProt Q91WD9: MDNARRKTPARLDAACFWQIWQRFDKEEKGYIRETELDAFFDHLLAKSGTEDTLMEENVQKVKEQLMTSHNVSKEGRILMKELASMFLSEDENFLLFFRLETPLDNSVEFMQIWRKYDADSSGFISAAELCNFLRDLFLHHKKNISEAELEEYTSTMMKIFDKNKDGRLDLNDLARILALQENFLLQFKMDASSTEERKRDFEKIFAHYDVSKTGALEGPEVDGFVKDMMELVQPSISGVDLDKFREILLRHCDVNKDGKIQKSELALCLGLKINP
# These are yes or no findings as the source states them, for the method shown. For part of these data: Binding seen in cells or lysates may run through a third protein. Some results given as binding are weak or reduced against the parent protein; the word gives no strength.
# How the values were obtained:
# [1] = molecular target: His6-tagged GFP-fusion construct carrying the mouse SNAP-25 14-33 peptide as C-terminal tag (mouse); test: co-purification of co-expressed proteins; His6-GFP-SNAP25C-peptide and tag-free mSCGN co-expressed in E. coli BL21(DE3); complex purified (Ni-NTA, SEC) in buffers with 2 mM CaCl2; SDS gel
# [2] = molecular target: mSTX4^32–10, His6-tagged syntaxin-4 Hb peptide (mouse); test: pull-down; His6-tagged partners expressed in E. coli BL21(DE3), captured on Ni-NTA resin as bait; bound secretagogin constructs analysed by SDS-PAGE
# [3] = molecular target: mouse SNAP-25c motif 147-179 (mouse); test: differential scanning fluorimetry; denaturation kinetics of mSCGN with the ligand, triplicates; both purified
Substance,binding [1],binding [2],binding [3]
"mouse secretagogin, tag-free, co-expressed with a His6-tagged partner (from UniProt Q91WD9 1-276)",binds,–,–
mouse secretagogin (from UniProt Q91WD9 1-276),–,binds,binds
